# Percent effect of library compounds

Protein sequences, listed by entry. Tags and fused reporters are not part of them. Residues count along the entry.
UniProt Q4DA54, 1-478: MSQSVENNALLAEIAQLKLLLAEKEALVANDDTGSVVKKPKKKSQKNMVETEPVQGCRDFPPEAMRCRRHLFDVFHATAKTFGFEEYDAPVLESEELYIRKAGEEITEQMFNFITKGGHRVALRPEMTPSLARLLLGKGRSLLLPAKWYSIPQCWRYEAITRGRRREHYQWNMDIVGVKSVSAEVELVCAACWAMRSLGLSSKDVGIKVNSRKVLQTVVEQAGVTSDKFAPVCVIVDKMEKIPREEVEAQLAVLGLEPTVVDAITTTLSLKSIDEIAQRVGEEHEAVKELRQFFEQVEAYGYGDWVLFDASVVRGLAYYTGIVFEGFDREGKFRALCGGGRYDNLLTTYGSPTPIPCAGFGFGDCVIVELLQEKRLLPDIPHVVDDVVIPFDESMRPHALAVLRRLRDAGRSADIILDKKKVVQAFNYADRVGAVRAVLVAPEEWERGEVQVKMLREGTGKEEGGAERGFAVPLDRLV

From ChEMBL document CHEMBL3988442, “University of Dundee, Small-Polar-MMV Screening Library” (2021).

Results are given as percent effect.
How 0% and 100% were set is not recorded. Most values in the screen are low, and negative values occur.
The compounds are a random part of those screened.

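Histidine-tRNA ligase, Trypanosoma cruzi CL Brener (UniProt Q4DA54). Enzyme assay of histidyl-tRNA synthetase; the read-out is not stated. Tested at 30 µM. Direction is inferred from retests: higher values go with stronger inhibition. Of about 69,000 compounds tested this way, about 31 (0.045%) reached 50% or more in at least one test.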

| # | compound | Percent Effect |
|---|---|---|
| 1 | `CN(Cc1ccco1)[C@@H]1CN(Cc2ccc(F)cc2)[C@@H]2CCCO[C@H]12` | 7.143% |
| 2 | `COCCN1C(=O)CC[C@@H]2[C@H]1CCN2C(=O)C1CCOCC1` | 3.448% |
| 3 | `O=C(Cc1cccs1)N1CCc2nnc(COc3cncnc3)n2CC1` | 8.021% |
| 4 | `CCN(CC1CN(Cc2cccc(C#N)c2)CCO1)c1cccnn1` (stereo unspecified) | 3.333% |
| 5 | `COCCN1CCCC2(CCN(c3cc(C)c(C#N)c(C)n3)C2)C1=O` (stereo unspecified) | 8.458% |
| 6 | `Cc1nc(C)c(CC(=O)N2C[C@H]3CC[C@@H]2CN(C(=O)N(C)C)C3)c(=O)[nH]1` | 3.39% |
| 7 | `COc1cccc(-n2cc(-c3ccnc(N[C@@H](CO)C(C)C)n3)cn2)c1` | 5.195% |
| 8 | `CC(C)Nc1nc(N2CCCC2)nc2c1CCN(S(C)(=O)=O)CC2` | 9.524% |
| 9 | `Cc1occc1CNc1ncccc1S(N)(=O)=O` | 5.82% |
| 10 | `O=C(c1cnccn1)N1CCCC2(CCCN2Cc2cccnc2)C1` (stereo unspecified) | 1.149% |
| 11 | `CC(C(=O)N1CCCC1)N1CCC(c2nccn2CC2CCC2)CC1` (stereo unspecified) | 9.917% |
| 12 | `COc1ccc(NC(=O)CCC2CCCN(Cc3ncon3)C2)cc1Cl` (stereo unspecified) | 3.734% |
| 13 | `Cc1cc(CN2CCN(Cc3ccc(C#N)cc3F)CC2)no1` | 8.247% |
| 14 | `CCCNC(=O)c1cc2c([nH]c1=O)CC(c1cccs1)CC2=O` (stereo unspecified) | -28.96% |
| 15 | `Cc1cc(F)ccc1N1CCCC(Nc2nccn3cnnc23)C1=O` (stereo unspecified) | 7.212% |
| 16 | `Cc1n[nH]c(C)c1-c1nccnc1CC1CCNC1` (stereo unspecified) | 5.429% |
| 17 | `CNS(=O)(=O)c1csc(C(=O)N(C)Cc2sccc2C)c1` | 4.762% |
| 18 | `Cc1cc(N2CCC(Cc3ccccc3)CC2)ncn1` | 15.03% |
| 19 | `CN1CCc2[nH]cnc2C12CCN(Cc1ccc3nsnc3c1)CC2` | 7.216% |
| 20 | `COCCCN1C(=O)CC[C@H]2CN(c3ccnc4ccccc34)CC[C@H]21` | -1.932% |
| 21 | `CC(C)N(CC(N)=O)C(=O)c1cc(F)ccc1N1CCN(C)CC1` | 7% |
| 22 | `CNC(=O)[C@@H](c1ccccc1)N1CCC[C@H]1C(=O)NC1CCCCC1` | 0.9901% |
| 23 | `CC(=O)Nc1nc(C(=O)NCc2ccc(OC(C)C)nc2)cs1` | 1.69% |
| 24 | `Cc1nc2cc(CNC(=O)C3CC(=O)N(CCN(C)C)C3)ccc2n1C` (stereo unspecified) | 2.97% |
| 25 | `O=C(CN1CCCS1(=O)=O)Nc1ccc(OC(F)F)cc1` | 5.319% |
| 26 | `CCC(=O)N(CC(N)=O)Cc1cccc(Oc2ccccc2)c1` | 3.448% |
| 27 | `Cc1nc(CN2CCN(C(=O)c3scnc3C)CC2)cs1` | 6.533% |
| 28 | `CN1CCN(C(=O)c2cc3sccc3n2Cc2ccccc2F)CC1` | 7.216% |
| 29 | `COc1ccccc1[C@@H]1CN(C(=O)c2csc(C)n2)C[C@H]1C(=O)O` | 3.252% |
| 30 | `O=C(CN1CCOC(c2ccc(Cl)s2)C1)NCc1ccco1` (stereo unspecified) | 10.34% |
| 31 | `CNC(=O)c1cnc2c(C)csc2c1` | 3.409% |
| 32 | `c1cc(CN2CCC(CCn3cccn3)CC2)cc(Cn2cccn2)c1` | 1.508% |
| 33 | `CCN(C(c1ccc(OC)cc1)c1cccnc1)S(C)(=O)=O` (stereo unspecified) | -1.01% |
| 34 | `CN(C)[C@H]1C[C@@H](Cc2cc(CO)on2)C1(C)C` | -4.478% |
| 35 | `O=C([C@H]1CC[C@@H]2[C@@H](CCN2C2CCOCC2)O1)N1CCOCC1` | 11.73% |
| 36 | `COc1cccc(-n2cc(CN(C)C(=O)c3cc[nH]n3)cn2)c1` | 7.792% |
| 37 | `CC(=O)c1cccc(NC(=O)Cn2cnc(-c3cccs3)cc2=O)c1` | 4.124% |
| 38 | `O=C(CN(CC(O)c1ccc(F)cc1)C1CC1)NCc1cccs1` (stereo unspecified) | 5.521% |
| 39 | `Cc1cc(S(=O)(=O)Nc2onc(C)c2C)sc1C` | 10.34% |
| 40 | `CC(C)CN1CCCn2nc(CNC(=O)Cc3cccc(O)c3)cc2C1` | 4.372% |
| 41 | `Cc1c(CN2CCCC(C(=O)CCc3ccccc3)C2)cc(C#N)n1C` (stereo unspecified) | 6.383% |
| 42 | `CC(C(=O)NCc1ccc(-n2cncn2)nc1)n1ccnc1` (stereo unspecified) | -0.3774% |
| 43 | `O=C1CN(C(=O)C2CCOCC2)CCN1Cc1ccc(Cl)cc1` | 14.84% |
| 44 | `COc1ccc(C[C@@H]2CC[C@H](CN(C)C3CCN(C)CC3)O2)cc1` | 1.064% |
| 45 | `Cc1cc(CN(C)C(=O)CC(C)C)no1` | 4.972% |
| 46 | `COc1cc(F)ccc1-c1ncccc1NC(=O)C(C)C` | 4% |
| 47 | `COCCN(Cc1ccccn1)Cc1sccc1C` | 0.4464% |
| 48 | `COc1ccc2c(c1)C1(CCNCC1)CC2NC1CC1` (stereo unspecified) | 11.05% |
| 49 | `Cc1nc(C2CCCN2CCCS(=O)(=O)N(C)C)no1` (stereo unspecified) | -1.901% |
| 50 | `CSc1ncccc1C(=O)N1C[C@H]2CC[C@@H]1CN(c1ncccn1)C2` | 1.674% |
| 51 | `O=C(NCc1ccc(CO)cc1)C1CCOc2ccccc2C1` (stereo unspecified) | -3.636% |
| 52 | `CCCS(=O)(=O)N1Cc2ccnn2CC(c2nc(C)no2)C1` (stereo unspecified) | -1.149% |
| 53 | `CCOc1ccc(NC2CCN(C)C2=O)cn1` (stereo unspecified) | 8.046% |
| 54 | `COc1ccc(N2CCN(C(=O)COc3nccc(C)n3)CC2)cc1` | 8.543% |
| 55 | `COc1ccc([C@@H]2CN(C(=O)CCn3cccn3)C[C@H]2NC(C)=O)cc1` | -2.186% |
| 56 | `COC1CCN(Cc2csc(C(C)C)n2)CC1` | -0.8403% |
| 57 | `COc1ccc(F)c(CN2CCCC3(CCN(C(=O)CSC)C3)C2)c1` (stereo unspecified) | 3.96% |
| 58 | `CC1CCCN(C(=O)CNC(=O)c2ccoc2)C1` (stereo unspecified) | 0.2849% |
| 59 | `CCOc1nnc(CNC2CCCN(c3ccc(C)nn3)C2)s1` (stereo unspecified) | 0.7519% |
| 60 | `O=C(COCC1CCCCO1)N1CCN(Cc2ccccc2F)C(=O)C1` (stereo unspecified) | -8.901% |
| 61 | `Cc1noc(C)c1CCC(=O)N1CCCCC1CNS(C)(=O)=O` (stereo unspecified) | 0% |
| 62 | `COc1ccccc1OC1CCN(c2nccc(N)n2)CC1` | 1.031% |
| 63 | `Cc1cc(C)c2nc(CNC3CCCNC3=O)cc(O)c2c1` (stereo unspecified) | 2.521% |
| 64 | `Cc1nc(CN(C)C2CCN(Cc3cnc(C)s3)C2)no1` (stereo unspecified) | 9.143% |
| 65 | `O=C(c1ccc(F)cc1)N1CCN2C[C@H](OCc3ccccn3)C[C@H]2C1` | 1.657% |
| 66 | `CCc1nnc2n1CCN(C(C(=O)NC1CC1)c1ccccc1)C2` (stereo unspecified) | 7.918% |
| 67 | `CC(C)c1n[nH]c(C2CN(C(=O)c3cc4c(s3)CCC4)CCO2)n1` (stereo unspecified) | 3.429% |
| 68 | `Cn1ccnc1N1CCN(C(=O)Cc2ccc(Cl)cc2)CC1` | 8% |
| 69 | `CCC1=NN2C(=N)/C(=C\c3cccn3-c3ccc(Br)cc3)C(=O)N=C2S1` | 8% |
| 70 | `O=C(O)c1cc(S(=O)(=O)Nc2ccc(F)cc2F)cc2c1OCCO2` | 0% |
| 71 | `Cc1c[nH]nc1C1CCN(C(=O)CC2CCCC2)C1` (stereo unspecified) | 11.65% |
| 72 | `COc1ccnc(NCc2ccccc2Cn2cccn2)n1` | 4.124% |